The text below walks through data of article PMC5762521.

By UniProt entry, the sequences of proteins in these tests, tags left out.
UniProt Q00613: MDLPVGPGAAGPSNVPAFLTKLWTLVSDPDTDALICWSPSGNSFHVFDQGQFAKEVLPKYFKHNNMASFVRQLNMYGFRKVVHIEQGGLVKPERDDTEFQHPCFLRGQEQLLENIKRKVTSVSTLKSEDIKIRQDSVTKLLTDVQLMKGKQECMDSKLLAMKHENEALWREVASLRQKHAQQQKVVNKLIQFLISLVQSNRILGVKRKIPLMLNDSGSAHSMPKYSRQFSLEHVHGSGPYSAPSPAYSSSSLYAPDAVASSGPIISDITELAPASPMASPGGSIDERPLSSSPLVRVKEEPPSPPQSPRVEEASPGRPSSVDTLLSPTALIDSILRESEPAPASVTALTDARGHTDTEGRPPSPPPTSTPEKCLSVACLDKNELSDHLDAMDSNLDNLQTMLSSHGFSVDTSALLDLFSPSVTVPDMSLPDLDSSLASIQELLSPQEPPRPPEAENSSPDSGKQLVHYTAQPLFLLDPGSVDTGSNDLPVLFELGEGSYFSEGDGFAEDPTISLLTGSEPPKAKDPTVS

These are yes or no findings as the source states them, for the method shown. In cells and extracts the contact can be indirect. Some results given as binding are weak or reduced against the parent protein; the word gives no strength.

The target in this assay is Heat shock transcription factor-1 (HSF-1) (human (endogenous in HCT-116)) (UniProt Q00613). The experiment in a line: co-IP; Total HCT-116 cell lysates (with or without vitexin) incubated with anti-HSF-1 antibody coupled to Dynabeads M-270 Epoxy; SDS-PAGE and immunoblot of the precipitate. (In general: Immunoblotting shows a protein as a band on a membrane.)

B1: Apolipoprotein L1 (ApoL1) (protein, UniProt O14791 28-398)
chain: EEAGARVQQNVPSGTDTGDPQSKPLGDWAAGTMDPESSIFIEDAIKYFKEKVSTQNLLLLLTDNEAWNGFVAAAELPRNEADELRKALDNLARQMIMKDKNWHDKGQQYRNWFLKEFPRLKSELEDNIRRLRALADGVQKVHKGTTIANVVSGSLSISSGILTLVGMGLAPFTEGGSLVLLEPGMELGITAALTGITSSTMDYGKKWWTQAQAHDLVIKSLDKLKEVREFLGENISNFLSLAGNTYQLTRGIGKDIRALRRARANLQSVPHASASRPRVTEPISAESGEQVERVNEPSILEMSRGVKLTDVAPVSFFLVLDVVYLVYESKHLHEGAKSETAEELKKVAQELEEKLNILNNNYKILQADQEL
With B1, the binding entry is “binds”.
